These are yes or no findings as the source states them, for the method shown. For some assays here: In cells and extracts the contact can be indirect. Some entries that bind do so weakly or less than the wild type. For some assays here: Sequences can lack the tags named with a protein. Values belong to the binder of their own block, whether it stands above or below them.
What was measured:
[1] = biological target: Recombinant GST-Tagged β-catenin (UniProt P35222); assay: pull-down; GST-β-catenin preloaded on Glutathione-Sepharose 4B, equimolar 6xHis-FKBP52 added, 1.5 h at 4°C; 50 mM HEPES pH 7.4, 50 mM KCl, 10 mM MgCl2, 0.01% Tween 20, 1 mM DTT; Western blot; both purified
[2] = biological target: β-catenin (endogenous, LNCaP) (human (endogenous in LNCaP)) (UniProt P35222); assay: co-IP; LNCaP lysates (RIPA buffer), anti-β-catenin antibody and protein A/G agarose, blots for AR and FKBP52; cells with or without 10 nM DHT and FKBP52 siRNA

Amino acid sequences for entries named in this document (tags omitted).
UniProt P35222: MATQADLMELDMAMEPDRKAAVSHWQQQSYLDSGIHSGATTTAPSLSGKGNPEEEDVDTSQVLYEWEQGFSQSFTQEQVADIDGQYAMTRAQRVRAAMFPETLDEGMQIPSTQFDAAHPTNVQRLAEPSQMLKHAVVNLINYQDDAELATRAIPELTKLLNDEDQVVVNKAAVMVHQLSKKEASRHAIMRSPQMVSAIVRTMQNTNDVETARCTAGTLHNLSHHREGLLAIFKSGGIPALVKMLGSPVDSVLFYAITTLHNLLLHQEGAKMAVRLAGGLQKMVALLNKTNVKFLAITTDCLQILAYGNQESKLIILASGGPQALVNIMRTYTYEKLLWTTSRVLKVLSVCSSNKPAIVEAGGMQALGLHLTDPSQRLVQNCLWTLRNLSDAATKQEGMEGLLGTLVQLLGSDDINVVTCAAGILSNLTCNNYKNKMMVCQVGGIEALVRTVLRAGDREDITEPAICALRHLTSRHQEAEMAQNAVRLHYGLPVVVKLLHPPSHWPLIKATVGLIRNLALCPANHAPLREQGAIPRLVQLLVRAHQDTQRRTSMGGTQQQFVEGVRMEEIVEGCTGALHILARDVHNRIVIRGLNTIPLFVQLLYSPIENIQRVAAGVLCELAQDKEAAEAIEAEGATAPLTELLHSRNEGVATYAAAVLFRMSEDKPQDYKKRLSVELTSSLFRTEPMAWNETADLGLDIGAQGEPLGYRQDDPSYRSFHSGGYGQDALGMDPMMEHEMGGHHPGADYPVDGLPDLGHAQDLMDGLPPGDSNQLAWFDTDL

- binding [1]: binds
B1: recombinant C-terminal 6xhistidine-tagged FKBP52 protein (protein, UniProt Q02790 1-459)
chain: MTAEEMKATESGAQSAPLPMEGVDISPKQDEGVLKVIKREGTGTEMPMIGDRVFVHYTGWLLDGTKFDSSLDRKDKFSFDLGKGEVIKAWDIAIATMKVGEVCHITCKPEYAYGSAGSPPKIPPNATLVFEVELFEFKGEDLTEEEDGGIIRRIQTRGEGYAKPNEGAIVEVALEGYYKDKLFDQRELRFEIGEGENLDLPYGLERAIQRMEKGEHSIVYLKPSYAFGSVGKEKFQIPPNAELKYELHLKSFEKAKESWEMNSEEKLEQSTIVKERGTVYFKEGKYKQALLQYKKIVSWLEYESSFSNEEAQKAQALRLASHLNLAMCHLKLQAFSAAIESCNKALELDSNNEKGLFRRGEAHLAVNDFELARADFQKVLQLYPNNKAAKTQLAVCQQRIRRQLAREKKLYANMFERLAEEENKAKAEASSGDHPTDTEMKEEQKSNTAGSQSQVETEA

- binding [2]: binds
B2: FKBP52 (endogenous, LNCaP) (protein, UniProt Q02790 1-459)
chain: B1 chain

Source: PMC4514735, “The FKBP52 Cochaperone Acts in Synergy with β-Catenin to Potentiate Androgen Receptor Signaling” (PLoS ONE, 2015)
